Results reported in PubChem BioAssay AID248 (DTP/NCI, 2004).
The list does not hold the whole screen: it gathers tests that were run many times, whatever their T/C, doses with no T/C, and many T/C values between a quarter and a half above the control. Further doses and runs are listed elsewhere. T/C gives the treated animals as a percentage of the vehicle group. Some entries give survivors of the animals treated and no T/C: the source holds a T/C of zero for them, seemingly a mark for toxic or unscored doses. Some survivor counts are full or nearly so, which does not show that the dose was tolerated: the source hardly ever lists a survival T/C far under the control, and the zero likely stands for such cases as well. Survivors were counted at the toxicity check, usually on the fifth day, unless a day is given; later deaths do not show. Schedules are NCI's codes, read here as Q, the interval in days (D) or hours (H), X, the number of doses. Some schedules carry Z or #; the key to these is not given. Some molecules as drawn cover several salts, stereoisomers or complexes of the source; a dose is that of the sample tested. Counts like (3×) count equal records among those shown. Some entries hold several experiments; the results are listed from low to high. For survival time, the PubChem record calls one and a half times the control and up active, and a quarter to a half above the control has no call in these data; cut-offs in other NCI protocols can differ. Some T/C values are followed by the survivors on the day toxicity was checked, most often the fifth; where none is given, no animal had died by that day.

System: L1210 leukemia ip in BDF1 mice, survival T/C
Test: NCI In Vivo Anticancer Drug Screen. Data for tumor model L1210 Leukemia (intraperitoneal) in B6D2F1 (BDF1) mice
Settings: T/C endpoint: mean survival time, higher T/C = longer survival
[1] = dose: 300.0 mg/kg/injection, schedule: Q01DX001 (ip), vehicle: saline
[2] = dose: 400.0 mg/kg/injection, schedule: Q01DX001 (ip), vehicle: saline
[3] = dose: 100.0 mg/kg/injection, schedule: Q01DX001 (ip), vehicle: saline
[4] = dose: 200.0 mg/kg/injection, schedule: Q01DX001 (ip), vehicle: saline
[5] = dose: 400.0 mg/kg/injection, schedule: Q01DX009 (ip), vehicle: Klucel (hydroxypropylcellulose) (HPC)
[6] = dose: 200.0 mg/kg/injection, schedule: Q04DX002 (ip), vehicle: Klucel (hydroxypropylcellulose) (HPC)
[7] = dose: 400.0 mg/kg/injection, schedule: Q04DX002 (ip), vehicle: Klucel (hydroxypropylcellulose) (HPC)
[8] = dose: 400.0 mg/kg/injection, schedule: Q04DX003 (ip), vehicle: saline
[9] = dose: 200.0 mg/kg/injection, schedule: Q04DX003 (ip), vehicle: Klucel (hydroxypropylcellulose) (HPC)
[10] = dose: 400.0 mg/kg/injection, schedule: Q04DX003 (ip), vehicle: Klucel (hydroxypropylcellulose) (HPC)

## O=S(=O)(CCl)OCCCCOS(=O)(=O)CCl
dose: 54.0 mg/kg/injection, schedule: Q01DX015 (ip), vehicle: saline
  T/C: 125 % of control
dose: 90.0 mg/kg/injection, schedule: Q01DX009 (ip), vehicle: saline
  T/C: 136 % of control [5 of 6 alive]
dose: 150.0 mg/kg/injection, schedule: Q01DX009 (ip), vehicle: saline
  survivor count: 1 of 6
dose: 150.0 mg/kg/injection, schedule: Q01DX015 (ip), vehicle: saline
  T/C: 136 % of control
dose: 200.0 mg/kg/injection, schedule: Q01DX001 (ip), vehicle: saline, evaluated on day 30
  T/C: 107 % of control
dose: 200.0 mg/kg/injection, schedule: Q01DX001 (ip), vehicle: saline, run until all animals had died
  T/C: 109, 121, 129 % of control [3 of 4 alive]
[1]
  T/C: 128 % of control [4 of 6 alive]
[2]
  survivor count: 0 of 4
dose: 400.0 mg/kg/injection, schedule: Q01DX015 (ip), vehicle: saline
  survivor count: 0 of 6

## CNC(=O)C1NCCc2cc(OC)c(OC)cc21 (centres undefined)
[3]
  survivor count: 4 of 4
[4]
  survivor count: 4 of 4
[2]
  survivor count: 2 of 4

## CC(=O)Oc1ccccc1[N+](=O)[O-]
[5]
  survivor count: 0 of 6

## Cc1cccc(NC(=O)Nc2cccc(Cl)c2Cl)n1
[5]
  survivor count: 1 of 6

## c1ccc(-c2csc3[n+]2CCN3)cc1
[3]
  survivor count: 0 of 4
[4]
  survivor count: 0 of 4
[2]
  survivor count: 0 of 4

## COc1ccc2c3c([nH]c2c1)C(C)=NCC3
[6]
  survivor count: 1 of 3
[7]
  survivor count: 0 of 3

## O=NN(CCCl)C(=O)Nc1ccc(F)cc1
dose: 4.7 mg/kg/injection, schedule: Q01DX001 (ip), vehicle: carboxymethylcellulose (CMC)
  T/C: 137 % of control
dose: 50.0 mg/kg/injection, schedule: Q01DX001 (ip), vehicle: carboxymethylcellulose (CMC)
  survivor count: 6 of 6
dose: 100.0 mg/kg/injection, schedule: Q01DX001 (ip), vehicle: carboxymethylcellulose (CMC)
  survivor count: 6 of 6
dose: 200.0 mg/kg/injection, schedule: Q01DX001 (ip), vehicle: carboxymethylcellulose (CMC)
  survivor count: 0 of 6
dose: 300.0 mg/kg/injection, schedule: Q01DX001 (ip), vehicle: carboxymethylcellulose (CMC)
  survivor count: 0 of 6
dose: 400.0 mg/kg/injection, schedule: Q01DX001 (ip), vehicle: carboxymethylcellulose (CMC)
  survivor count: 0 of 6
dose: 500.0 mg/kg/injection, schedule: Q01DX001 (ip), vehicle: carboxymethylcellulose (CMC)
  survivor count: 0 of 6

## c1ccc(N2CCNCC2)cc1
dose: 80.0 mg/kg/injection, schedule: Q01DX001 (ip), vehicle: saline
  survivor count: 1 of 6 and 2 of 6
[3]
  survivor count: 0 of 4 (2×), 1 of 4, 2 of 4
dose: 100.0 mg/kg/injection, schedule: Q04DX003 (ip), vehicle: saline
  survivor count: 0 of 6
[4]
  survivor count: 0 of 4 (5×)
dose: 200.0 mg/kg/injection, schedule: Q04DX003 (ip), vehicle: saline
  survivor count: 0 of 6
[2]
  survivor count: 0 of 4 (4×) and 1 of 4
[8]
  survivor count: 0 of 6

## CC(O)CSc1ccccc1 (centres undefined)
dose: 400.0 mg/kg/injection, schedule: Q01DX009 (ip), vehicle: saline with Tween-80
  survivor count: 1 of 6

## Cc1cc[n+](CCCCCCCCCCO)cc1C
dose: 175.0 mg/kg/injection, schedule: Q01DX001 (ip), vehicle: saline
  survivor count: 0 of 6
dose: 350.0 mg/kg/injection, schedule: Q01DX001 (ip), vehicle: saline
  survivor count: 0 of 6

## Cn1c(=O)c2[nH]c(C3CC3)nc2n(C)c1=O
[2]
  survivor count: 0 of 4

## CC1=NCCc2ccccc21
dose: 100.0 mg/kg/injection, schedule: Q04DX003 (ip), vehicle: saline with Tween-80
  survivor count: 0 of 6
dose: 200.0 mg/kg/injection, schedule: Q04DX003 (ip), vehicle: saline with Tween-80
  survivor count: 0 of 6
dose: 400.0 mg/kg/injection, schedule: Q04DX003 (ip), vehicle: saline with Tween-80
  survivor count: 0 of 6

## CN(C)C1CCc2c(ccc3ccccc23)C1=O (centres undefined)
[4]
  survivor count: 0 of 6
[2]
  survivor count: 0 of 6

## c1ccc2c[n+](C[n+]3ccc4ccccc4c3)ccc2c1
[8]
  survivor count: 1 of 6

## CCOC(=O)C1C(=O)CC2c3nc4ccccc4cc3CN2C1=O (centres undefined)
[1]
  survivor count: 3 of 6

## CC1(C)CC(=O)C2=C(C1)Nc1ccccc1NC2c1ccccc1 (centres undefined)
[6]
  T/C: 127 % of control
[7]
  survivor count: 3 of 3

## O=C(c1ccccc1)C1(c2ccccc2)OP(c2ccccc2)(c2ccccc2)(c2ccccc2)CC1c1ccccc1 (centres undefined)
dose: 6.25 mg/kg/injection, schedule: Q04DX003 (ip), vehicle: saline with Tween-80
  survivor count: 6 of 6

## Oc1cccc(-c2cccc(OCCCCCCCCCCBr)c2)c1
dose: 50.0 mg/kg/injection, schedule: Q01DX009 (ip), vehicle: DMSO
  survivor count: 3 of 6
dose: 100.0 mg/kg/injection, schedule: Q01DX009 (ip), vehicle: DMSO
  survivor count: 0 of 6
dose: 200.0 mg/kg/injection, schedule: Q01DX009 (ip), vehicle: DMSO
  survivor count: 1 of 6
dose: 400.0 mg/kg/injection, schedule: Q01DX009 (ip), vehicle: DMSO
  survivor count: 0 of 6
dose: 400.0 mg/kg/injection, schedule: Q04DX003 (ip), vehicle: DMSO
  survivor count: 4 of 6

## CCC(=O)OCC1OC(n2cc(F)c(=O)[nH]c2=O)CC1OC(=O)CC (centres undefined)
dose: 133.0 mg/kg/injection, schedule: Q01DX015 (ip), vehicle: saline
  T/C: 129 % of control
dose: 200.0 mg/kg/injection, schedule: Q01DX015 (ip), vehicle: saline
  T/C: 142 % of control
[8]
  T/C: 127 and 138 % of control

## CC1(C)N=C(N)N=C(N)N1c1cccc(CCCCc2ccc(Cl)c(S(=O)(=O)F)c2)c1
dose: 25.0 mg/kg/injection, schedule: Q01DX009 (ip), vehicle: saline sonified
  survivor count: 6 of 6
dose: 50.0 mg/kg/injection, schedule: Q01DX009 (ip), vehicle: saline sonified
  survivor count: 5 of 6

## C[n+]1cc(C#N)cc(C#N)c1
[1]
  survivor count: 1 of 6

## O=C(O)C1(O)C(Cl)(Cl)C(Cl)=C(Cl)C1(Cl)Cl
dose: 200.0 mg/kg/injection, schedule: Q01DX009 (ip), vehicle: saline sonified
  survivor count: 3 of 6
[9]
  survivor count: 1 of 6
[10]
  survivor count: 0 of 6

## COC1=CC23CCNC(Cc4ccc(OC)c(O)c42)C3=CC1 (centres undefined)
dose: 20.0 mg/kg/injection, schedule: Q01DX001 (ip), vehicle: saline
  survivor count: 2 of 6
dose: 40.0 mg/kg/injection, schedule: Q01DX001 (ip), vehicle: saline
  survivor count: 0 of 6
dose: 75.0 mg/kg/injection, schedule: Q01DX001 (ip), vehicle: saline
  survivor count: 0 of 6
dose: 150.0 mg/kg/injection, schedule: Q01DX001 (ip), vehicle: saline
  survivor count: 0 of 6
[1]
  survivor count: 0 of 6

## OCCN(CCO)c1nnc(-c2ccccc2)o1
[3]
  survivor count: 6 of 6

## Brc1ccc([I+]c2ccccc2)cc1
[2]
  survivor count: 1 of 4

## Cc1cccc(C[As](=O)(O)O)c1
dose: 50.0 mg/kg/injection, schedule: Q04DX003 (ip), vehicle: Klucel (hydroxypropylcellulose) (HPC)
  survivor count: 0 of 3
dose: 100.0 mg/kg/injection, schedule: Q04DX003 (ip), vehicle: Klucel (hydroxypropylcellulose) (HPC)
  survivor count: 0 of 6
[9]
  survivor count: 0 of 6
[10]
  survivor count: 0 of 6

## CSc1nsc2nnc(N)n12
[1]
  survivor count: 2 of 6

## CCCCCCCCCCCCCS
dose: 300.0 mg/kg/injection, schedule: Q01DX Z (ip), vehicle: saline
  survivor count: 3 of 6
